In paper PMC10681259:
Results are given in words; binding and its absence hold for the method and conditions named. Binding seen in cells or lysates may run through a third protein. Some results given as binding are weak or reduced against the parent protein; the word gives no strength. Tags and fused reporters may be left off the sequences shown.

Molecular target: T1, Ssd1-TAP (S. cerevisiae) (UniProt P24276)
T1 sequence: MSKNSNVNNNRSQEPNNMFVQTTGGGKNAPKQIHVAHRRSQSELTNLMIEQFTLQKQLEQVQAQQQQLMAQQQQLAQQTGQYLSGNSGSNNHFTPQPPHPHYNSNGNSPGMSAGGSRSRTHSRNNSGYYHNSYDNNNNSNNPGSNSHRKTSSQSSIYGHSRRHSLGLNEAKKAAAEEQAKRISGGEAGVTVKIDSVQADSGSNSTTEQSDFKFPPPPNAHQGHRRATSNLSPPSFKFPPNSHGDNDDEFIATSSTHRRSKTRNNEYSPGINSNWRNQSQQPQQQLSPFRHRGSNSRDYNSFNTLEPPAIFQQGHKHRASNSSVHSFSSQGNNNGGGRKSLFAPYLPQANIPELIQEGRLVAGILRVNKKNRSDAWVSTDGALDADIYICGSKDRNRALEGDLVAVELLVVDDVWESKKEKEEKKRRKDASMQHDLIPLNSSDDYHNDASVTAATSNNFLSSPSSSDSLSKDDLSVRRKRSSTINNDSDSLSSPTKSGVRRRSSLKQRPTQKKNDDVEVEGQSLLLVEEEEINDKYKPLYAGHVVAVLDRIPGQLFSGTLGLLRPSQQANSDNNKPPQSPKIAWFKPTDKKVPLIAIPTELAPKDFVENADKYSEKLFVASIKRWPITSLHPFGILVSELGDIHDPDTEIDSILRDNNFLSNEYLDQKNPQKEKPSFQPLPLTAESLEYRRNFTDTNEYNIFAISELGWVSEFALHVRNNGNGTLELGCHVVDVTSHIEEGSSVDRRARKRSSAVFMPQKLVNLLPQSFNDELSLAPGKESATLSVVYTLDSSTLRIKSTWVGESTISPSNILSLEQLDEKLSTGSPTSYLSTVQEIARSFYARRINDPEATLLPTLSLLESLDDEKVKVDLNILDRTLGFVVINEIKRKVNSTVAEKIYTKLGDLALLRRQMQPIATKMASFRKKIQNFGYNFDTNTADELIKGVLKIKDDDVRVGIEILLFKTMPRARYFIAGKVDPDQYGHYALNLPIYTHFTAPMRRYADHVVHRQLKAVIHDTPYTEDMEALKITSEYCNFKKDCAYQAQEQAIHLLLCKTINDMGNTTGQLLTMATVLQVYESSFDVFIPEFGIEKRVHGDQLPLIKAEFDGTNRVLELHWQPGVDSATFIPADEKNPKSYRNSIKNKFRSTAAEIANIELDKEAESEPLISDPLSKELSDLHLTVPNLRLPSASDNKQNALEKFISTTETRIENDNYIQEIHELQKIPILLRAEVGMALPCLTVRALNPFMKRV
Assay: co-IP; Ssd1-TAP or eIF2A-TAP as bait on IgG-coupled magnetic beads from yeast lysate, beads washed 3 times, with or without micrococcal nuclease before elution; Western blot with PAP, anti-HA or anti-XrnI antibodies

binding: binds
B1: eIF2A-HA (protein, UniProt P53235 1-642)
chain: MSSQFFLKTSQDIELFQSYPTFEQSNTNSKDFPVISSVLSPCGRFLALSTKENVKVFTGPCLDNVLLTMKLSDVYDLHFSPAGNYLSTWERASIQDPNHKNVKVWYLNKPFKKDCVSEDIVPAYEYQAKSQSGWFLQFSKLDNYGLRLFKHDLKIVKLSSANADNFDFQSPFAVLSDDETSQHFTTYLISPAEHPTICTFTPEKGGKPAQLIIWALSEGKITKKIASKTFFKADSCQLKWNPLGNAILCLAITDFDSSNKSYYGENTLYLLSFQGVNGTLGGNSVRVSLTTGPVHDFTWSPTSRQFGVIAGYMPATISFFDLRGNVVHSLPQQAKNTMLFSPSGHYILIAGFGNLQGSVEILDRLDKFKCVSKFDATNTSVCKWSPGGEFIMTATTSPRLRVDNGVKIWHVSGSLVFVKEFKELLKVDWRSPCNYKTLENKDEAFFENHIINNWEPLPDSTTSSLDPKISNKSELQIHSSVQEYISQHPSREASSNGNGSKAKAGGAYKPPHARRTGGGRIVPGVPPGAAKKTIPGLVPGMSANKDANTKNRRRRANKKSSETSPDSTPAPSAPASTNAPTNNKETSPEEKKIRSLLKKLRAIETLKERQAVGDKLEDTQVLKIQTEEKVLKDLEKLGWKDE
